Experimental data taken from PubChem BioAssay AID493014 (National Center for Advancing Translational Sciences (NCATS), 2011).
The other results are listed elsewhere or left out. The main result of the screen is listed elsewhere. These columns were measured beside it and carry no call. The list favours compounds with an active or inconclusive main result. Potencies come from curve fits of mixed quality, noted in brackets. Peptide text beside a SMILES is read from it. * marks the point of attachment. Boc = CC(C)(C)OC(=O)*

Assay: qHTS Assay to Find Inhibitors of Chronic Active B-Cell Receptor Signaling
Settings: ABC-DLBCL IkBa-CBG/CBR reporter, luminescence ratio (green luciferase fused to IkBa over red control in TMD8 lymphoma cells), 4 h
Procedure, shortened: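 Concentration-response series (up to 46 uM) were applied to TMD8 dual-reporter cells for 4 h at 37C with doxycycline. Green/red ratio, after filter-overlap correction, defined %Activity; red signal alone was normalised to basal cells and zero luminescence.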

[1] = measured here: CBR red luminescence, cell number

SMILES | AC50 [1] | AC50 (measured here: IkBa-CBG green luminescence)
CC(C)C(=O)Nc1cccc(NC(=S)NC(=O)c2ccccc2Cl)c1 | 0.282 µM [falling, full curve, poor fit] | –
CCCN(CCC)c1nc(N)nc(-c2cc(Cl)ccc2OC)n1 | 3.98 µM [rising, single point] | –
OCC1(Cc2ccccc2C(F)(F)F)CCN(Cc2ccccc2)CC1 | 11.2 µM [falling, partial curve, poor fit] | –
Cc1ccc(NC(=O)CSc2nc3c(c(=O)[nH]2)CCC3)cc1C | 10 µM [falling, partial curve, poor fit] | –
O=C(CSc1nnc(C2CCCCC2)o1)Nc1ccccc1Cl | 22.4 µM [falling, single point] | –
CCOc1ccc(OCc2cccc(C(=O)O)c2)cc1 | 0.631 µM [falling, full curve, poor fit] | –
CCCN1CCN(c2ncnc3scc(C4COc5ccccc5O4)c23)CC1 (stereo unspecified) | 11.2 µM [falling, partial curve, poor fit] | –
COc1ccc(CC(=O)Nc2c(C(N)=O)oc3ccccc23)cc1 | 1.26 µM [falling, partial curve, poor fit] | –
Cc1ccc2nc(C)c(Cl)c(=O)n2c1 | 1.64 µM [falling, partial curve, poor fit] | –
O=C(c1cccs1)n1nc(-c2ccccc2)nc1NCc1ccc(F)cc1 | 10.3 µM [rising, partial curve, poor fit] | –
Cc1cc(=O)[nH]c(SCC(=O)Nc2ccc(C(=O)O)cc2)n1 | 18.4 µM [falling, single point] | –
Cc1cccc(N/C=C/C(=O)c2cccs2)c1C | 29.1 µM [falling, single point] | –
Cc1cc2c(N=NC(=O)CCc3ccccc3)c(O)[nH]c2cc1Br | 6.51 µM [rising, partial curve, poor fit] | –
CC(C)CC(NC(=O)C1CCCN1C(=O)OC(C)(C)C)C(=O)NCC(N)=O (stereo not drawn) (Boc-Pro-Leu-Gly-NH2; configuration not given here) | 29.1 µM [rising, single point] | –
Cc1ccccc1C(=O)NC(=S)NCCc1ccccc1 | 7.31 µM [falling, partial curve, poor fit] | –
CCCn1c(C)cc(-c2csc(NC(=O)CCc3nc4ccccc4c(=O)[nH]3)n2)c1C | 1.46 µM [rising, full curve] | –
COc1ccccc1/C=C1/C(=O)N(c2ccccc2)N=C1C | 20 µM [rising, single point] | –
COc1cccc(C(=O)NNC(=O)Cc2ccc([N+](=O)[O-])cc2)c1 | 8.2 µM [falling, partial curve] | –
CC(C)c1ccc(/C=N\NC(=O)c2ccc(Cn3cccn3)o2)cc1 | 11.6 µM [falling, partial curve] | –
Oc1ccccc1/C=C/c1noc(-c2ccccc2O)n1 | 5.01 µM [falling, partial curve] | –

As a short view, part of the list above:
SMILES | AC50 [1] | AC50 (measured here: IkBa-CBG green luminescence)
Cc1cc2c(N=NC(=O)CCc3ccccc3)c(O)[nH]c2cc1Br | 6.51 µM [rising, partial curve, poor fit] | –
CC(C)CC(NC(=O)C1CCCN1C(=O)OC(C)(C)C)C(=O)NCC(N)=O (stereo not drawn) (Boc-Pro-Leu-Gly-NH2; configuration not given here) | 29.1 µM [rising, single point] | –

Later entries

SMILES | AC50 [1] | AC50 (measured here: IkBa-CBG green luminescence)
CCOC(=O)c1ccc(NC(=O)Oc2cc(C)c(Cl)cc2C(C)C)cc1 | 31.6 µM [rising, single point] | –
O=C(Cn1cnc([N+](=O)[O-])n1)N/N=C/c1ccc(O)cc1O | 10 µM [falling, partial curve] | –
O=C(COc1ccc([N+](=O)[O-])cc1Cl)N1CCc2ccccc21 | 5.8 µM [rising, single point] | –
CC1CCN(C(=O)Cn2cnc3c(cnn3C(C)(C)C)c2=O)CC1 | 1 µM [rising, full curve, poor fit] | –
N#CC1=C(N)Oc2n[nH]c(CSc3ccccc3)c2C12C(=O)Nc1ccccc12 (stereo unspecified) | 29.1 µM [falling, single point] | –
N#C/C(=C/c1ccc(Br)o1)C(N)=S | 8.91 µM [falling, partial curve, poor fit] | –
Cc1ccsc1/C=N/NC(=O)c1cc(-c2ccncc2)nc2ccccc12 | 5.17 µM [rising, full curve] | 7.31 µM [falling, partial curve]
Cc1ccc(NC(=O)c2cccc(C(=O)Nc3ccc(C)cc3C(=O)O)c2)c(C(=O)O)c1 | 6.31 µM [falling, full curve, poor fit] | –
CC(CCC(=O)O)C1CC[C@@]2(C)C3C(=O)CC4C(C)(C)C(O)CC[C@]4(C)C3C(=O)C[C@]12C (stereo partly specified) | 6.31 µM [rising, partial curve, poor fit] | –
O=S(=O)(NCc1cn2ccsc2n1)c1ccc2c(c1)OCCO2 | 29.1 µM [falling, single point] | –
COc1ccc(S(=O)(=O)N2CCC(C(=O)N3CCCC3)CC2)cc1 | 17.8 µM [rising, partial curve, poor fit] | –
COc1ccc(NC(=O)c2ccc(NCCN3C(=O)CCC3=O)c([N+](=O)[O-])c2)cc1 | 12.6 µM [falling, partial curve, poor fit] | –
C/C(=N\Nc1nc2ccccc2[nH]1)c1ccc(C)o1 | 13 µM [falling, partial curve] | –
COC(=O)CSc1nnc(CNC(=O)Cc2ccccc2)n1-c1ccccc1OC | 35.5 µM [falling, single point] | –
Cc1cnc(NC(=O)C2CC(=O)N(c3cccc(Cl)c3)C2)s1 (stereo unspecified) | 2.82 µM [rising, full curve, poor fit] | –
CCOc1ccccc1Nc1nc2ccc(C)cc2n2cnnc12 | 10 µM [rising, partial curve, poor fit] | –
COc1cc(OC)c(OC)cc1/C=C1\CC(C)C/C(=C\c2cc(OC)c(OC)cc2OC)C1=O (stereo unspecified) | 20 µM [falling, partial curve] | –
COc1ccc(CCNC(=O)C2CC(c3ccc([N+](=O)[O-])cc3)=NO2)cc1 (stereo unspecified) | 1.26 µM [falling, full curve, poor fit] | –
CN1CCN(CCCN2c3ccccc3Sc3ccc(C(F)(F)F)cc32)CC1 | 12.6 µM [falling, single point] | –
CCOC(=O)c1ccc(Oc2cn[nH]c2-c2ccc(OCC(=O)NN)cc2O)cc1 | 14.1 µM [falling, single point] | –
